This note sets out measurements from paper PMC7082118 (Oncotarget, 2020).

Where two headings read alike, the source gives them in different places.

The subject of assay [1] is midostaurin-resistant FLT3-ITD tumors. Particulars: mouse, in vivo.
The next assay has as its system MOLM-14 cells. Briefly: Cell viability assay (CellTiter-Glo 2.0). Particulars: read-out: IC50, cell viability. The class given is cell-based, human. On the procedure:
(§1) Human AML cell lines MV4-11, Kasumi-1, HL-60, and THP-1 were purchased from the American Type Culture Collection (Manassas, Virginia, USA). MV4-11 cells were cultured in Iscove’s Modified Dulbecco’s Medium (IMDM; Thermo Fisher Scientific, Waltham, Massachusetts, USA) supplemented with 10% (vol/vol) heat-inactivated fetal bovine serum (FBS; GE Healthcare Ltd, Chicago, Illinois, USA). […] HL-60 cells were cultured in IMDM supplemented with 20% (vol/vol) heat-inactivated FBS. […] Human AML cell lines, MOLM-13, MOLM-14, EOL-1, and OCI-AML3, were purchased from Leibniz-Institut DSMZ-Deutsche Sammlung von Mikroorganismen und Zellkulturen GmbH.
(§2) The amount of ATP in viable cells was quantified as a luminescent signal using the CellTiter-Glo 2.0 Assay (Promega Corporation, Madison, Wisconsin, USA) and EnVision (PerkinElmer Inc, Waltham, Massachusetts, USA) to determine the number of viable cells according to the manufacturers’ instructions.
Background: ATP-based viability assays read luminescence as a measure of living cells.

The subject of a further assay is MOLM-14-MR2 cells. Briefly: cells. Particulars: Homo sapiens, 72 h, read-out: IC50, cell viability.
Assay [2] has as its system midostaurin-resistant MOLM-14 cells. In words: cells. The settings on record: Homo sapiens, MOLM-14, read-out: IC50 against midostaurin-resistant MOLM-14 cells.
Another assay has as its system MOLM-14-MR2 tumors. In words: MOLM-14-MR2 xenograft mouse model. The settings on record: in vivo, po.
The test system of another assay is MOLM-13-QR cells. In words: cells. The settings on record: Homo sapiens, read-out: IC50, cell viability.
A further assay relates to EOL-1 cells. In words: Cell viability assay (CellTiter-Glo 2.0). The class given is cell-based. The settings on record: Homo sapiens, EOL1, 72 h, read-out: IC50, cell viability. On the procedure: as §1, §2
Another assay deals with MV4-11 cells. In words: Cell viability assay (CellTiter-Glo 2.0). The class given is cell-based. The settings on record: Homo sapiens, MV4-11, 72 h, read-out: IC50, cell viability. On the procedure: as §1, §2
A further assay deals with HL-60 cells. Briefly: Cell viability assay (CellTiter-Glo 2.0). Particulars: Homo sapiens, HL-60, 72 h, read-out: IC50, cell viability. The class given is cell-based. On the procedure:
as §1, §2

In the next assay the test system is Kasumi-1 cells. In words: Cell viability assay (CellTiter-Glo 2.0). The class given is cell-based. Particulars: Homo sapiens, Kasumi 1, 72 h, read-out: IC50, cell viability. The method, then: as §1, §2
Another assay deals with MOLM-13 cells. In words: Cell viability assay (CellTiter-Glo 2.0). Particulars: Homo sapiens. The class given is cell-based. The method, then: as §1, §2
Another assay has as its system MOLM-13-QR2 cells. In words: cells. Particulars: Homo sapiens, read-out: IC50, cell viability.
The subject of another assay is MV4-11 tumors. Briefly: MV4-11 xenograft mouse model. The settings on record: in vivo, po.
The test system of the next assay is FLT3 signaling. Briefly: FLT3 inhibitor washout experiment in MOLM-14 cells. Format: cell-based, human.
Another assay has as its system MOLM-14-MR cells. Briefly: cells. Particulars: Homo sapiens, 72 h, read-out: IC50, cell viability.

On to `CO[C@@H]1[C@H](N(C)C(=O)c2ccccc2)C[C@H]2O[C@]1(C)n1c3ccccc3c3c4c(c5c6ccccc6n2c5c31)C(=O)NC4` [Midostaurin, midostaurin], for which the “EC50, tumor growth inhibition” value (in assay [1]; in the assay with MOLM-14-MR2 tumors) was more than 100 mg/kg each time. Further, the IC50 with MOLM-14 cells was 10.1 nM; in the assay with MOLM-14-MR2 cells, 45.1 nM; in assay [2], 45.1 to 106 nM; in the assay on MOLM-13-QR cells, 38.6 nM; with EOL-1 cells, 7.86 nM; with MV4-11 cells, 7.56 nM. Further, the half-maximal inhibitory concentration (IC50) with HL-60 cells is 806 nM; in the assay with Kasumi-1 cells, 185 nM; with MOLM-13 cells (MOLM-13, 72 h, read-out: IC50, cell viability), 10.7 nM; in the assay on MOLM-13 cells (MOLM-13, read-out: IC50, cell viability) it was 7.4 nM; with MOLM-13-QR2 cells, 24.2 nM; in the assay with MOLM-14-MR cells it was 106 nM. The “EC90, tumor growth inhibition” value in the assay on MV4-11 tumors is 19.34 mg/kg. Besides, the “Long-term durability of inhibition of FLT3 signaling after compound withdrawal” value in the assay with FLT3 signaling is recorded as “no longer able to inhibit FLT3 signaling at 24 hours”.

Broadly, the IC50 is the concentration that inhibits the measured activity by half.
